The text below walks through data of publication PMC9321335, “Palmitic Acid-Conjugated Radiopharmaceutical for Integrin αvβ3-Targeted Radionuclide Therapy” (Pharmaceutics, 2022).

A short description of one series: Biodistribution study. To be noted: C57BL/6, mouse, in vivo, 0.74 MBq, total radioactivity. The procedure: Mice bearing MC38 xenografts were randomly divided into 10 groups (n = 4). The mice in five groups were administered 0.74 MBq/20 µCi of ^177Lu-Palm-3PRGD2 and sacrificed at 1, 4, 12, 24, and 72 h p.i. The mice on one group was injected with 0.74 MBq/20 µCi of ^177Lu-Palm-3PRGD2 and 500 μg (242 nmol) 3PRGD2 as a blocking agent and sacrificed at 1 h p.i. […] Tumors and major organs were harvested, weighed and measured for radioactivity using a γ-counter. The organ uptake was calculated as the percentage injected activity per gram (%IA/g). The effective absorbed dose in humans estimated from mouse biodistribution data by using a dedicated software (OLINDA 1.0).

Details of series [1]: species or system KM mice. The settings on record: mouse, in vivo. Here is the method: (§1) Female KM mice were randomly divided into three groups (n = 5). Each group was injected intravenously with 0.74 MBq ^177Lu-Palm-3PRGD2, ^177Lu-3PRGD2, or ^177Lu-Palm. Blood samples obtained from the canthus vein were collected at different time points post injection (p.i.), weighed, and evaluated using a γ-counter. The results are presented as the percentage injected activity per gram (%IA/g). Nonlinear regression (curve fit) followed by two phase decay was performed using GraphPad Prism version 9.0.0 for Windows, GraphPad Software, San Diego, CA, USA, www.graphpad.com (accessed on 22 May 2022). And then the half-lives values were calculated and determined.

On the set-up of series [2]: species or system C57BL/6 mice. To be noted: mouse, in vivo. Here is the method: as §1, with “determined. Blood clearance studies were performed in normal KM mice. […] Blood clearance studies were also performed in C57BL/6 mice.” for “determined.”

Usually tissue uptake stands for the share of the injected amount in each gram of the tissue. In the case of `N=C(N)NCCC[C@@H]1NC(=O)[C@H](CCCCNC(=O)CCOCCOCCOCCOCCNC(=O)CC[C@H](NC(=O)CCOCCOCCOCCOCCNC(=O)CN2CCN(CC(=O)O)CCN(CC(=O)O)CCN(CC(=O)O)CC2)C(=O)NCCOCCOCCOCCOCCC(=O)NCCCC[C@@H]2NC(=O)[C@@H](Cc3ccccc3)NC(=O)[C@H](CC(=O)O)NC(=O)CNC(=O)[C@H](CCCNC(=N)N)NC2=O)NC(=O)[C@@H](Cc2ccccc2)NC(=O)[C@H](CC(=O)O)NC(=O)CNC1=O` [^177Lu-3PRGD2, [^177Lu]Lu-DOTA-3PRGD2, metal not drawn], the tissue uptake at 4 h in the series “Biodistribution study” was 4.91 %ID/g.

Turning to `CCCCCCCCCCCCCCCC(=O)N[C@@H](CCC(=O)NCCCC[C@H](NC(=O)CN1CCN(CC(=O)O)CCN(CC(=O)O)CCN(CC(=O)O)CC1)C(=O)NCCOCCOCCOCCOCCC(=O)N[C@@H](CCC(=O)NCCOCCOCCOCCOCCC(=O)NCCCC[C@@H]1NC(=O)[C@@H](Cc2ccccc2)NC(=O)[C@H](CC(=O)O)NC(=O)CNC(=O)[C@H](CCCNC(=N)N)NC1=O)C(=O)NCCOCCOCCOCCOCCC(=O)NCCCC[C@@H]1NC(=O)[C@@H](Cc2ccccc2)NC(=O)[C@H](CC(=O)O)NC(=O)CNC(=O)[C@H](CCCNC(=N)N)NC1=O)C(=O)O` [^177Lu-Palm-3PRGD2, [^177Lu]Lu-DOTA-Palm-3PRGD2, metal not drawn], in series [1], the “Blood AUC, times higher than ^177Lu-3PRGD2” value is listed as roughly 10 times and the “Circulation time in blood, times longer than ^177Lu-3PRGD2” value was “more than 6 times”. Also, the “Blood circulation time, times longer than ^177Lu-3PRGD2” value in series [2] was 4–6 times.
